Source: publication PMC11493973
These are yes or no findings as the source states them, for the method shown. In cells and extracts the contact can be indirect. Some entries that bind do so weakly or less than the wild type.

Sequences of proteins named here, by UniProt entry; tags and fusion partners are left off.
UniProt P35579: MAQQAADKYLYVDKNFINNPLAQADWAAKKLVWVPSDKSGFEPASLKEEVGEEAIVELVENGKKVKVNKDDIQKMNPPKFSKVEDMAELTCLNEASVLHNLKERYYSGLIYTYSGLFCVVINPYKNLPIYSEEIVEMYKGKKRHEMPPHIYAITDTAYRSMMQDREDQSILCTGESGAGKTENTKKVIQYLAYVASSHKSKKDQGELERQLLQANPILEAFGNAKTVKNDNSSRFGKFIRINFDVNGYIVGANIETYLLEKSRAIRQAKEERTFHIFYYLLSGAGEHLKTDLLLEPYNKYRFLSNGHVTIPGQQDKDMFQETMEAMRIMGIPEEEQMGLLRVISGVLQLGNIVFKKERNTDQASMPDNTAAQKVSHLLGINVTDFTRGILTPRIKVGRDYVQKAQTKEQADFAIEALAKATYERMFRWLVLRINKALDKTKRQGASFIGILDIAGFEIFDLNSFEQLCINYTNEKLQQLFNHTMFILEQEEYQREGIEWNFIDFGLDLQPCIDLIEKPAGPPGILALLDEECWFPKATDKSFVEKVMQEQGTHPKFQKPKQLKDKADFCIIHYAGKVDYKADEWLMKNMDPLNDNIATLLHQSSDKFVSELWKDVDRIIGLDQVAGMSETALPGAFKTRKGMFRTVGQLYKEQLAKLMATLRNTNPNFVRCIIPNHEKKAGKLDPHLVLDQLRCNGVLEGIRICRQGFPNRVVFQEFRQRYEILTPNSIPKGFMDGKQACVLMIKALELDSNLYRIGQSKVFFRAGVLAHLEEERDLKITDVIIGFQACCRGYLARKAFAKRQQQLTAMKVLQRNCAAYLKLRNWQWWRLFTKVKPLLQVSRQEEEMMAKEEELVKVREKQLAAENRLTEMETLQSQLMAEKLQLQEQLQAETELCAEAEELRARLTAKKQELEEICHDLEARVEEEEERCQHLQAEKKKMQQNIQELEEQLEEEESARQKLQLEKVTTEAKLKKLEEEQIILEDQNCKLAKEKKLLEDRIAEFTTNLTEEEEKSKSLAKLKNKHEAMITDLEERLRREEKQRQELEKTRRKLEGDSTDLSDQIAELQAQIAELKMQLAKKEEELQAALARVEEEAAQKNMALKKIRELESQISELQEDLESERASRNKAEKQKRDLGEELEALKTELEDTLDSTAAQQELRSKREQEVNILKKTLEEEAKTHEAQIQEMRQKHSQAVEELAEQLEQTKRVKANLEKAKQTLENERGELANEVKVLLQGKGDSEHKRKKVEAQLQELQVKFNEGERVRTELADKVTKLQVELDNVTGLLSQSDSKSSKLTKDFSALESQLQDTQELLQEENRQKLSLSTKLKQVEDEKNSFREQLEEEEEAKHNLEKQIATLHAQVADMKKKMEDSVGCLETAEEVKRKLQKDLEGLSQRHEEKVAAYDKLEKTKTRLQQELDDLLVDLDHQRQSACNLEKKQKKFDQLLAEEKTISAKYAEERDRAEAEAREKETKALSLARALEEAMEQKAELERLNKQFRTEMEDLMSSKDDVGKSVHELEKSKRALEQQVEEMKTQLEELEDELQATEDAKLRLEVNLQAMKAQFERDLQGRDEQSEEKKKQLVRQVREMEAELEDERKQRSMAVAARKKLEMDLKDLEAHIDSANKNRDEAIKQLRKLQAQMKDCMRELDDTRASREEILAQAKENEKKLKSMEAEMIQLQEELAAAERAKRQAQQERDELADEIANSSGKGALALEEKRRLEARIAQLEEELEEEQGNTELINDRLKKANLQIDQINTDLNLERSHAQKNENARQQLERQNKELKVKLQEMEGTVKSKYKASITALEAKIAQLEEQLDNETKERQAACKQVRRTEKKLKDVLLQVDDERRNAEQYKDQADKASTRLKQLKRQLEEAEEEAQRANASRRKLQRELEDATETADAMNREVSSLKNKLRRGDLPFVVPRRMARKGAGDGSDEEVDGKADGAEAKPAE

Biological target: T1, Polypeptide N-Acetylgalactosaminyltransferase 5 (UniProt Q7Z7M9)
T1 sequence: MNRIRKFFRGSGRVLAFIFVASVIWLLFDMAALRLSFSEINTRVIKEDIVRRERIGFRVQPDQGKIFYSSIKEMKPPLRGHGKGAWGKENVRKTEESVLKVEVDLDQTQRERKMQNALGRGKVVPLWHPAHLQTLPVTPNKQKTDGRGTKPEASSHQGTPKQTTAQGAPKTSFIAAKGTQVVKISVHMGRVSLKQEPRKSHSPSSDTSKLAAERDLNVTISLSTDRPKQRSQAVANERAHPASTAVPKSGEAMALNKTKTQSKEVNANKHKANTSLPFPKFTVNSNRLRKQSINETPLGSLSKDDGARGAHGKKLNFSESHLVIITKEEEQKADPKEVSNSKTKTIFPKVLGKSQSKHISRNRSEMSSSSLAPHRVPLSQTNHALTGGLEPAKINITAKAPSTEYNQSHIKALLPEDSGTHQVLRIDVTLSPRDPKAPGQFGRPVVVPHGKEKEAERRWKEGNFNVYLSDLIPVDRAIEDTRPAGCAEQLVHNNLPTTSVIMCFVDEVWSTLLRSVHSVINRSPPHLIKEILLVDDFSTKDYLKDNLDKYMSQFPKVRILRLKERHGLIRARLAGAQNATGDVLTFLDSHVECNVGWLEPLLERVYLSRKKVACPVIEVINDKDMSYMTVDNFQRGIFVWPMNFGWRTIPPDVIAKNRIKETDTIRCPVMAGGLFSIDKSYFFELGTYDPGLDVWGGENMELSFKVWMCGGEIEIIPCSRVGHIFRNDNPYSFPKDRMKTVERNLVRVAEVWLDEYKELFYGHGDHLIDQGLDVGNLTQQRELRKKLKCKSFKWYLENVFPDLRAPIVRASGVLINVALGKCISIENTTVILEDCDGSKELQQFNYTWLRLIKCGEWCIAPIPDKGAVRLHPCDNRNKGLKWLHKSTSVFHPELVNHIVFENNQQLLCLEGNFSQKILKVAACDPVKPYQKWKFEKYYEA
Experiment: co-IP; cells lysed in WB IP lysis and extraction buffer with proteinase phosphatase inhibitors; beads incubated with antibodies for 30 min, then with the samples for 1 h at room temperature; western blot; cell line and precipitating antibody not named

binding: binds
Substance: MYH9 (from UniProt P35579 1-1960)
